Results are given in words; binding and its absence hold for the method and conditions named. Some results given as binding are weak or reduced against the parent protein; the word gives no strength.
Tests used:
Angiopoietin-2 [1] = molecular target: T1, Angiopoietin-2 (human, UniProt O15123 19-496, limits assumed); experiment: ELISA, Ang2 immobilised
T1 construct: also called Ang2; biotinylated Ang2
T1 sequence (looked up): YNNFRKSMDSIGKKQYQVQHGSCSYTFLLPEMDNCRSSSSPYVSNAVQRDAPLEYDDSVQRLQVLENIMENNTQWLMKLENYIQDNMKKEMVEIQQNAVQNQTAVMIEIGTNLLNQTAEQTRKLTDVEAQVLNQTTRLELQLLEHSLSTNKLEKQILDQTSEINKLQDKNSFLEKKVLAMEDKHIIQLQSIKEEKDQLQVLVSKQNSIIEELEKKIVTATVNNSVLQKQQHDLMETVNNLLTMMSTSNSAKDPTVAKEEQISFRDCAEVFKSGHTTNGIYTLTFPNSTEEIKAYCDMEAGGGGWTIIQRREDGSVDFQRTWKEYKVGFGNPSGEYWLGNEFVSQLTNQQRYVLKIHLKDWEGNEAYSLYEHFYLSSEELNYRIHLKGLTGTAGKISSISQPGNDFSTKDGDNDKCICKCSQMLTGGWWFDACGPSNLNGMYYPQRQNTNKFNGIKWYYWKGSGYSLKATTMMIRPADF

Angiopoietin-2 [2] = molecular target: T1, Angiopoietin-2; experiment: ELISA, 5 µg/ml Ang2 immobilised, ectodomain-Fc 0-10 µg/ml, anti-Tie2 ectodomain antibody detection
Angiopoietin-2 [3] = molecular target: T1, Angiopoietin-2; experiment: SPR (ForteBio Octet), ectodomain-Fc immobilised
Angiopoietin-2 [4] = molecular target: T1, Angiopoietin-2; experiment: SPR as named in the filing (ForteBio Octet), ectodomain-Fc immobilised on the sensor, Ang2 in solution, concentrations not given
Angiopoietin-2 [5] = molecular target: T1, Angiopoietin-2; experiment: ELISA on immobilised Ang2, ectodomain 0-50 µg/ml
Angiopoietin-2 [6] = molecular target: T1, Angiopoietin-2; experiment: SPR
Angiopoietin-2 [7] = molecular target: T1, Angiopoietin-2; experiment: SPR as named in the filing, panel headed 'Binding of R3 and R3 I161G binding to Ang2', concentrations not given
Procedure: Surface plasmon resonance was performed using a ForteBio Octet instrument (Pall Life Sciences). Fusion proteins were immobilised at 5 μg/ml on sensors and kinetic binding assays perfoinied as detailed by the manufacturer.

Measured: binding

F161I Tie2 ectodomain-Fc fusion protein (from UniProt Q02763 23-442)
binds: Angiopoietin-2 [1] | Angiopoietin-2 [2]

B1: Wild-type Tie2 ectodomain (1-442)-Fc fusion protein (Fc fusion)
chain (part 1 of 2): AMDLILINSLPLVSDAETSLTCIASGWRPHEPITIGRDFEALMNQHQDPLEVTQDVTREWAKKVVWKREKASKINGAYFCEGRVRGEAIRIRTMKMRQQASFLPATLTMTVDKGDNVNISFKKVLIKEEDAVIYKNGSFIHSVPRHEVPDILEVHLPHAQPQDAGVYSARYIGGNLFTSAFTRLIVRRCEAQKWGPECNHLCTACMNNGVCHEDTGECICPPGFMGRTCEKACELHTFGRTCKERCSGQEGCKSYVFCLPDPYGCSCATGWKGLQCNEACHPGFYGPDCKLRCSCNNGEMCDRFQGCLCSPGWQGLQCEREGIQRMTPKIVDLPDHIEVNSGKFNPICKASGWPLPTNEEMTLVKPDGTVLHPKDFNHTDHFSVAIFTIHRILPPDSGVWVCSVNTVAGMVEKPFNISVK
chain (part 2 of 2): HHHHHH
notes: Secreted from HEK293 cells, about 80 kDa, purified on Ni-NTA; also called wild-type ectodomain; Wt; not shown: human Fc tag
binds: Angiopoietin-2 [1] | Angiopoietin-2 [3] | Angiopoietin-2 [2] | Angiopoietin-2 [4]

B2: Evolved (R3) Tie2 ectodomain-Fc fusion protein (F161I, ΔR167, ΔH168) (Fc fusion)
chain (part 1 of 2): AMDLILINSLPLVSDAETSLTCIASGWRPHEPITIGRDFEALMNQHQDPLEVTQDVTREWAKKVVWKREKASKINGAYFCEGRVRGEAIRIRTMKMRQQASFLPATLTMTVDKGDNVNISFKKVLIKEEDAVIYKNGSIIHSVPEVPDILEVHLPHAQPQDAGVYSARYIGGNLFTSAFTRLIVRRCEAQKWGPECNHLCTACMNNGVCHEDTGECICPPGFMGRTCEKACELHTFGRTCKERCSGQEGCKSYVFCLPDPYGCSCATGWKGLQCNEACHPGFYGPDCKLRCSCNNGEMCDRFQGCLCSPGWQGLQCEREGIQRMTPKIVDLPDHIEVNSGKFNPICKASGWPLPTNEEMTLVKPDGTVLHPKDFNHTDHFSVAIFTIHRILPPDSGVWVCSVNTVAGMVEKPFNISVK
chain (part 2 of 2): HHHHHH
notes: also called R3 ectodomain; evolved ectodomain; not shown: human Fc tag
not listed: Angiopoietin-2 [2]
binds: all other assays above
